According to patent US20120066777A1 (SHIONOGI, published 2012):
These are yes or no findings as the source states them, for the method shown. Some results given as binding are weak or reduced against the parent protein; the word gives no strength. Blank lines part the entries; values can stand above or below the binder they belong to.

Columns and labels:
[1] = target: T1, human recombinant CCDC3 protein (human, UniProt Q9BQI4 22-270); assay: western blot, reduced SDS-PAGE, 50 ng protein
T1 construct: Secreted from Freestyle293 cells, purified from culture supernatant, 3xFlag tag removed with thrombin (31 kDa); the C-terminus at 270 follows from the C-terminus peptide 259-270; Also used biotin-labelled (PEO-maleimide biotin) as tracer; also called human CCDC3 recombinant protein; human CCDC3 protein
T1 sequence: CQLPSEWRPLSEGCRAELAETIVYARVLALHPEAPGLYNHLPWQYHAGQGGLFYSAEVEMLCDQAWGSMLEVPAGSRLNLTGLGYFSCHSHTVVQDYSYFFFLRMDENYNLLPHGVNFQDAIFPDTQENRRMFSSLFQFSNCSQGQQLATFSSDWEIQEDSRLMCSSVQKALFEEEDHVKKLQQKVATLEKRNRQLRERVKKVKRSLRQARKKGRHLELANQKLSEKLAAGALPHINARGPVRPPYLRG

[2] = target: T1, human recombinant CCDC3 protein; assay: hybridoma screening ELISA, antibody captured on anti-mouse IgG plate, biotin tracer
[3] = target: T1, human recombinant CCDC3 protein; assay: chemiluminescence sandwich ELISA, detection antibody

binding [1]: binds | binding [2]: binds
B1: 11E10 antibody (antibody, IgG2b, V domains shown)
VH: QVQLQQSGPELVKPGASVKISCKASGYSFRSYYIHWMKQSPGQGLEWIAWIYPGGGKIYYNDNEKFKDKVTLTADTSSSTAYMQLTGLTSEDSAVYFCARWGGYYVGSILDYWGQGTSVTVSS
VL: DGDIVMTQSQKFLSTSVGDRVSVTCKASQNVDNNVAWYQQRPGQSPKPLIYLTSSRYSGVPDRFTGSGSGTDFTLTITNVQSEDLAEYFCQQYKTYPLTFSVGTKLELKRA
notes: Mouse hybridoma monoclonal, isotype IgG2b; From a mouse immunized with antigen 2 (human recombinant CCDC3-KLH conjugate); also called human anti-CCDC3 antibody 11E10

binding [3]: binds
B2: alkaliphosphatase-labeled 11E10 Fab' antibody (Fab, V domains shown)
VH: B1 VH
VL: B1 VL
modifications: alkaliphosphatase (ALP) coupled through sulfo-SMCC maleimide to the Fab' thiol
